# Test results: PubChem BioAssay AID504834 (National Center for Advancing Translational Sciences (NCATS), 2011)
# The whole screen tested about 320,000 compounds, of which about 22,000 (6.9%) were called active. Inconclusive results, whose numbers are uncertain, are shown with a selection of clear calls. Calls come from the whole dose curve; as a rule, active = well fitted inhibition curve with a large enough effect; inconclusive = small, poorly fitted or top-dose-only effect, or another doubt; inactive = no such curve, though single readings can be large or run the other way. A potency beside an inconclusive call is a rough fit, not a confirmed value.
# Experiment: Primary qHTS for delayed death inhibitors of the malarial parasite plastid, 96 hour incubation
# Details: P. falciparum luciferase reporter growth; series mostly up to 28.7 µM; activity change, negative = inhibition: at the top concentration
# Source text: The goal of this screen is to discover new antimalarial compounds that act by inhibiting the development of the apicoplast in the malarial parasite Plasmodium falciparum. The biochemical processes that make this organelle essential for erythrocytic stage parasites are not well understood. However, antibiotics such as azithromycin and tetracycline, which target the apicoplast translational machinery, have a potent antimalarial effect.
# We have developed a cell-based assay that measures parasite growth based on the expression of an integrated copy of a firefly luciferase reporter. To detect small molecules that cause this "delayed death" phenotype, erythrocytes infected with the luciferase-expressing parasites were incubated with compounds for either one or two generations, corresponding to 48 and 96 hours, respectively. Compounds that inhibit parasite growth in the second generation, but not the first, should be enriched in antimalarials that target the apicoplast. Growth inhibition is detected by a decrease in luciferase activity.
# Assay Provider: David Fidock and Eric Ekland, Columbia University
# Keywords: NIH Roadmap, MLPCN, MLI, MLSMR, qHTS, NCGC, qHTS, malaria, luciferase, viability
# Four microliters of infected erythrocytes (2% hematocrit, 0.05% parasitemia final concentration) in culture medium were dispensed and the plates incubated for 96 hours at 37 C in 5% CO2. Two microliters of luciferase detection reagent was added and luminescence was detected by a ViewLux (PerkinElmer) reader.
# % is set by controls: 0 for no effect and ±100 for the full control effect; potency is the fitted concentration of half-maximal effect.
Compound,Potency,"activity change, negative = inhibition"
CCOC(=O)C1CCCN(C(=O)c2ccc3[nH]c4c(c3c2)CC(C)CC4)C1 (stereo not drawn),"inconclusive: 18.5 µM [inhibitor, single point]",
CS(=O)(=O)N1CCCC(c2nc(-c3ccc(S(=O)(=O)NCc4ccccc4)cc3)no2)C1 (stereo not drawn),"inconclusive: 5.22 µM [inhibitor, partial curve, poor fit]",
COC(=O)c1c(-c2ccc(F)cc2)noc1N,active: 4.65 µM,
O=C(O)COc1ccc(/C=N/NC(=O)c2ccc(-c3csc(Nc4ccc(Cl)cc4)n3)cc2)cc1,"inconclusive: 18.5 µM [inhibitor, single point]",
COc1ccc(C(=O)N2CCc3cc(OC)c(OC)cc3C2c2ccc(OC)c(OC)c2)cc1 (stereo not drawn),"inconclusive: 18.5 µM [inhibitor, single point]",
CCC1CCc2sc(C(=O)NCc3ccccn3)cc2C1 (stereo not drawn),"inconclusive: 18.5 µM [inhibitor, single point]",
CC(=O)c1cccc(CN2CCC(CO)(CCOc3ccccc3)CC2)c1,"inconclusive: 10.4 µM [inhibitor, single point]",
COCC1=C(C(=O)OC)C(c2ccco2)n2ncnc2N1 (stereo not drawn),"inconclusive: 11.7 µM [inhibitor, partial curve, poor fit]",
O=C(COc1ccc(Cl)cc1)Nc1nc(-c2ccc(S(=O)(=O)N3CCOCC3)cc2)cs1,,inactive: 5.48%
O=C(CN1CCc2ccccc2C1)Nc1ccccc1C(F)(F)F,,inactive: 3.41%
COc1ccc(S(=O)(=O)N2CCCC(C(=O)N3CCN(C)CC3)C2)cc1Cl (stereo not drawn),"inconclusive: 10.4 µM [inhibitor, single point]",
Cc1ccc(C(=O)NC(=S)N(C)C2CCCCC2)cc1Br,"inconclusive: 1.65 µM [inhibitor, full curve]",
CCOC(=O)C(C)Sc1nc2c(cnn2-c2ccc(C)cc2)c(=O)[nH]1 (stereo not drawn),"inconclusive: 1.47 µM [inhibitor, full curve, poor fit]",
O=c1c2ccccc2nc(/C=C/c2ccco2)n1-c1ccccc1O,"inconclusive: 18.5 µM [inhibitor, single point]",
CCc1cccc(NC(=O)c2sc3nc4n(c(=O)c3c2C)CCC4)c1,"inconclusive: 0.329 µM [inhibitor, partial curve]",
CN1CCN(c2nc(-c3ccc(Cl)cc3)nc3ccccc23)CC1,"inconclusive: 10.4 µM [inhibitor, single point]",
O=C1CCCN1CC(CN1CCOCC1)Sc1nnnn1-c1ccccc1 (stereo not drawn),,inactive: 14.3%
CCCCCN1CC(=O)N2[C@@H](Cc3c([nH]c4ccccc34)C2(C)C)C1=O,"inconclusive: 7.38 µM [inhibitor, partial curve]",
CCCc1cc(=O)oc2c(CNc3ccc(OCC)cc3)c(O)ccc12,"inconclusive: 9.28 µM [inhibitor, partial curve, poor fit]",
CC(OC(=O)c1cnc2ccccc2n1)c1ccccc1Cl (stereo not drawn),,inactive: 85%
O=C(NCc1ccncc1)NC12CC3CC(CC(C3)C1)C2,"inconclusive: 0.928 µM [inhibitor, partial curve, poor fit]",
O=C(CN1CCN(S(=O)(=O)c2cccc(F)c2)CC1)Nc1ccnn1C1CCCC1,"inconclusive: 18.5 µM [inhibitor, single point]",
CCc1noc(C)c1C(=O)Nc1cccc2ncccc12,"inconclusive: 14.7 µM [inhibitor, partial curve, poor fit]",

# Ordered by formula weight (high to low): some entries from above
Compound,Potency,"activity change, negative = inhibition"
COc1ccc(C(=O)N2CCc3cc(OC)c(OC)cc3C2c2ccc(OC)c(OC)c2)cc1 (stereo not drawn),"inconclusive: 18.5 µM [inhibitor, single point]",
CN1CCN(c2nc(-c3ccc(Cl)cc3)nc3ccccc23)CC1,"inconclusive: 10.4 µM [inhibitor, single point]",
O=c1c2ccccc2nc(/C=C/c2ccco2)n1-c1ccccc1O,"inconclusive: 18.5 µM [inhibitor, single point]",

# Next part.

Compound,Potency,"activity change, negative = inhibition"
COc1ccc(OC)c2c1nc1n2CCS1,"inconclusive: 18.5 µM [inhibitor, single point]",
Cc1ccc(C(=O)CCC(=O)N2CCN(c3ccc(F)cc3)CC2)cc1,"inconclusive: 11.7 µM [inhibitor, single point]",
CCc1ccc(C(O)(c2ccccc2OC)C(CN2CCOCC2)c2ccccc2)cc1 (stereo not drawn),,inactive: 15.3%
Cc1ccc(NC(=O)c2cc3cc(OC(F)(F)F)ccc3[nH]2)cc1,"inconclusive: 11.7 µM [inhibitor, partial curve, poor fit]",
CC1CCC(NC(=O)c2ccc(CS(=O)(=O)Cc3ccccc3F)o2)CC1 (stereo not drawn),"inconclusive: 13.1 µM [inhibitor, partial curve]",
NCCNc1ccc([N+](=O)[O-])cc1,,inactive: 0%
CCOc1cc(N2CCOCC2)c(OCC)cc1NC(=O)CN1CCSC1=O,,inactive: 29%
CCOC(=O)c1ccc(NC(=O)C(=O)NCC2(c3ccc(OC)cc3)CCOCC2)cc1,"inconclusive: 18.5 µM [inhibitor, single point]",
O=C(Nc1cccnc1)c1cnc2ccccc2n1,"inconclusive: 18.5 µM [inhibitor, single point]",
Cc1ccc2c(c1)N(CC(=O)NCCCN1CCCCC1)C(=O)c1cccnc1O2,active: 9.28 µM,
CCc1ccc(-c2ccc(C(=O)O)cc2)nc1,"inconclusive: 11.7 µM [inhibitor, single point]",
COc1ccc(C(C)C)cc1S(=O)(=O)N1CCC(C(=O)N2CCN(C)CC2)CC1,,inactive: -16.5%
COc1ccc(C(=O)Nc2nc(C)cc(C)n2)cc1,,inactive: 0.875%
CCn1c(=O)c2sccc2n2c(CCCC(=O)NCc3cccnc3)nnc12,active: 13.1 µM,
COc1ccc(O)c(CN2CCCC(C(=O)Nc3cccc(-n4cccn4)c3)C2)c1 (stereo not drawn),"inconclusive: 18.5 µM [inhibitor, single point]",
O=C(C1=NNCC1c1ccccc1)C1CO1 (stereo not drawn),"inconclusive: 13.1 µM [inhibitor, single point]",
O=C(Nc1ccccc1N1CCOCC1)c1cccc(NS(=O)(=O)c2ccc(F)c(F)c2)c1,,inactive: 20.5%
CCOc1ccc(OCCn2nnc3ccccc3c2=O)cc1,,inactive: 116%
O=C(NC(Cc1ccccc1)C(=O)O)/C(=C\c1ccccc1F)NC(=O)c1ccccc1 (stereo not drawn),"inconclusive: 11.7 µM [inhibitor, single point]",
COc1cccc(-c2nc(OC(C)C)c3ccccc3n2)c1,"inconclusive: 13.1 µM [inhibitor, partial curve, poor fit]",
CCc1ccccc1-n1c(SCC(=O)N2CCCC2)nc2[nH]ncc2c1=O,"inconclusive: 18.5 µM [inhibitor, single point]",
CCOc1ccc(-n2c(SCC(=O)Nc3ccc4c(c3)OCO4)nc3c(c2=O)SCC3)cc1,"inconclusive: 3.7 µM [inhibitor, single point]",
COCCn1c(C)cc(/C=C2/SC(=O)N(CC(=O)N3CCCC3)C2=O)c1C,,inactive: 30.1%

# By substructure, the compounds so far containing a CF3 group
Compound,Potency,"activity change, negative = inhibition"
O=C(CN1CCc2ccccc2C1)Nc1ccccc1C(F)(F)F,,inactive: 3.41%
Cc1ccc(NC(=O)c2cc3cc(OC(F)(F)F)ccc3[nH]2)cc1,"inconclusive: 11.7 µM [inhibitor, partial curve, poor fit]",

# Continuation:

Compound,Potency,"activity change, negative = inhibition"
C=CCOc1ccccc1/C=c1\sc2nc(=O)c(C)nn2c1=O,"inconclusive: 18.5 µM [inhibitor, single point]",
Cc1cc(-c2nnc(SCC(=O)Nc3ccc(F)c(F)c3)n2N)n[nH]1,"inconclusive: 10.4 µM [inhibitor, partial curve, poor fit]",
Cc1cc(NS(=O)(=O)c2ccc(NC(=S)NC(=O)c3ccccc3)cc2)no1,"inconclusive: 10.4 µM [inhibitor, single point]",
COc1ccc(NS(=O)(=O)c2cccc(C(=O)N/N=C/c3ccc4c(c3)OCCO4)c2)cc1,,inactive: -2.53%
COc1ccc(-c2nc(CCNC(=O)c3ccco3)cs2)cc1OC,"inconclusive: 9.28 µM [inhibitor, partial curve, poor fit]",
O=C(Cc1cccs1)N/N=C\c1ccc(O)cc1,,inactive: 113%
COCCn1ccc2c(OCC(=O)Nc3cc(OC)ccc3OC)cccc2c1=O,"inconclusive: 4.15 µM [inhibitor, partial curve]",
CC(C)CCNC(=O)NC(=O)CSc1ccc(S(=O)(=O)N2CCOCC2)cn1,"inconclusive: 8.28 µM [inhibitor, partial curve, poor fit]",
Cc1ccc[n+](CC(=O)Nc2cc(C(F)(F)F)ccc2N2CCOCC2)c1,"inconclusive: 18.5 µM [inhibitor, single point]",
CC(C)(C)Sc1nc(O)cc(=O)[nH]1,"inconclusive: 7.38 µM [inhibitor, partial curve, poor fit]",
O=C(NCc1ccco1)c1nc(-c2ccc(F)cc2)no1,"inconclusive: 14.7 µM [inhibitor, single point]",
COC(=O)c1cc(OC)c(OC)cc1NC(=S)Nc1cc(Cl)ccc1OC,"inconclusive: 18.5 µM [inhibitor, single point]",
Cc1ccc2nc(-c3ccc(NC(=O)CN4C(=O)c5ccccc5C4=O)cc3)sc2c1,,inactive: -23.4%
O=C(N/N=C/c1ccc2c(c1)OCO2)C(=O)Nc1ccc2ccccc2c1,,inactive: 14.3%
CC(C)[C@H](NC(=O)[C@@H]1Cc2ccccc2CN1)C(=O)Nc1ccc2c(c1)OCO2,"inconclusive: 18.5 µM [inhibitor, single point]",
CCOc1cc(C(=O)NC)cc(OCC)c1OCC,"inconclusive: 0.0657 µM [inhibitor, full curve, poor fit]",
COc1ccccc1CNC(=O)C1CCN(S(=O)(=O)N2CCCCC2)CC1,,inactive: -8.66%
O=Cc1c(N2CCN(c3cccc(Cl)c3)CC2)nc2ccccn2c1=O,"inconclusive: 1.65 µM [inhibitor, full curve]",
CCCSc1cc(=O)n(-c2ccc(F)cc2)nc1C(=O)OCC,,inactive: -18.2%
C=CCN1C(=O)NC(c2ccc(OC)cc2)(C(F)(F)F)S/C1=C(\C#N)c1nnc(N2CCOCC2)n1-c1ccccc1 (stereo not drawn),"inconclusive: 5.22 µM [inhibitor, partial curve, poor fit]",
O=C(c1cc2nc(-c3ccco3)cc(C(F)(F)F)n2n1)N1CCCCCC1,"inconclusive: 9.28 µM [inhibitor, single point]",
O=C(CSc1ccc2c(c1)OCCO2)Nc1cccnc1Cl,"inconclusive: 0.465 µM [inhibitor, full curve, poor fit]",
